No constants are given. Whether binding was seen depends on the method and setting. Some binding calls cover weakened binding; strength is not graded here. One block for each binder: values may come before it.
Target: fibroin heavy chain (Fib-H) (Bombyx mori (endogenous in the silk gland)) (UniProt P05790)
Test: native gel or EMSA

Sequences of proteins named here, by UniProt entry; tags and fusion partners are left off. Residues count along the entry.
UniProt P05790, residues 22-5263: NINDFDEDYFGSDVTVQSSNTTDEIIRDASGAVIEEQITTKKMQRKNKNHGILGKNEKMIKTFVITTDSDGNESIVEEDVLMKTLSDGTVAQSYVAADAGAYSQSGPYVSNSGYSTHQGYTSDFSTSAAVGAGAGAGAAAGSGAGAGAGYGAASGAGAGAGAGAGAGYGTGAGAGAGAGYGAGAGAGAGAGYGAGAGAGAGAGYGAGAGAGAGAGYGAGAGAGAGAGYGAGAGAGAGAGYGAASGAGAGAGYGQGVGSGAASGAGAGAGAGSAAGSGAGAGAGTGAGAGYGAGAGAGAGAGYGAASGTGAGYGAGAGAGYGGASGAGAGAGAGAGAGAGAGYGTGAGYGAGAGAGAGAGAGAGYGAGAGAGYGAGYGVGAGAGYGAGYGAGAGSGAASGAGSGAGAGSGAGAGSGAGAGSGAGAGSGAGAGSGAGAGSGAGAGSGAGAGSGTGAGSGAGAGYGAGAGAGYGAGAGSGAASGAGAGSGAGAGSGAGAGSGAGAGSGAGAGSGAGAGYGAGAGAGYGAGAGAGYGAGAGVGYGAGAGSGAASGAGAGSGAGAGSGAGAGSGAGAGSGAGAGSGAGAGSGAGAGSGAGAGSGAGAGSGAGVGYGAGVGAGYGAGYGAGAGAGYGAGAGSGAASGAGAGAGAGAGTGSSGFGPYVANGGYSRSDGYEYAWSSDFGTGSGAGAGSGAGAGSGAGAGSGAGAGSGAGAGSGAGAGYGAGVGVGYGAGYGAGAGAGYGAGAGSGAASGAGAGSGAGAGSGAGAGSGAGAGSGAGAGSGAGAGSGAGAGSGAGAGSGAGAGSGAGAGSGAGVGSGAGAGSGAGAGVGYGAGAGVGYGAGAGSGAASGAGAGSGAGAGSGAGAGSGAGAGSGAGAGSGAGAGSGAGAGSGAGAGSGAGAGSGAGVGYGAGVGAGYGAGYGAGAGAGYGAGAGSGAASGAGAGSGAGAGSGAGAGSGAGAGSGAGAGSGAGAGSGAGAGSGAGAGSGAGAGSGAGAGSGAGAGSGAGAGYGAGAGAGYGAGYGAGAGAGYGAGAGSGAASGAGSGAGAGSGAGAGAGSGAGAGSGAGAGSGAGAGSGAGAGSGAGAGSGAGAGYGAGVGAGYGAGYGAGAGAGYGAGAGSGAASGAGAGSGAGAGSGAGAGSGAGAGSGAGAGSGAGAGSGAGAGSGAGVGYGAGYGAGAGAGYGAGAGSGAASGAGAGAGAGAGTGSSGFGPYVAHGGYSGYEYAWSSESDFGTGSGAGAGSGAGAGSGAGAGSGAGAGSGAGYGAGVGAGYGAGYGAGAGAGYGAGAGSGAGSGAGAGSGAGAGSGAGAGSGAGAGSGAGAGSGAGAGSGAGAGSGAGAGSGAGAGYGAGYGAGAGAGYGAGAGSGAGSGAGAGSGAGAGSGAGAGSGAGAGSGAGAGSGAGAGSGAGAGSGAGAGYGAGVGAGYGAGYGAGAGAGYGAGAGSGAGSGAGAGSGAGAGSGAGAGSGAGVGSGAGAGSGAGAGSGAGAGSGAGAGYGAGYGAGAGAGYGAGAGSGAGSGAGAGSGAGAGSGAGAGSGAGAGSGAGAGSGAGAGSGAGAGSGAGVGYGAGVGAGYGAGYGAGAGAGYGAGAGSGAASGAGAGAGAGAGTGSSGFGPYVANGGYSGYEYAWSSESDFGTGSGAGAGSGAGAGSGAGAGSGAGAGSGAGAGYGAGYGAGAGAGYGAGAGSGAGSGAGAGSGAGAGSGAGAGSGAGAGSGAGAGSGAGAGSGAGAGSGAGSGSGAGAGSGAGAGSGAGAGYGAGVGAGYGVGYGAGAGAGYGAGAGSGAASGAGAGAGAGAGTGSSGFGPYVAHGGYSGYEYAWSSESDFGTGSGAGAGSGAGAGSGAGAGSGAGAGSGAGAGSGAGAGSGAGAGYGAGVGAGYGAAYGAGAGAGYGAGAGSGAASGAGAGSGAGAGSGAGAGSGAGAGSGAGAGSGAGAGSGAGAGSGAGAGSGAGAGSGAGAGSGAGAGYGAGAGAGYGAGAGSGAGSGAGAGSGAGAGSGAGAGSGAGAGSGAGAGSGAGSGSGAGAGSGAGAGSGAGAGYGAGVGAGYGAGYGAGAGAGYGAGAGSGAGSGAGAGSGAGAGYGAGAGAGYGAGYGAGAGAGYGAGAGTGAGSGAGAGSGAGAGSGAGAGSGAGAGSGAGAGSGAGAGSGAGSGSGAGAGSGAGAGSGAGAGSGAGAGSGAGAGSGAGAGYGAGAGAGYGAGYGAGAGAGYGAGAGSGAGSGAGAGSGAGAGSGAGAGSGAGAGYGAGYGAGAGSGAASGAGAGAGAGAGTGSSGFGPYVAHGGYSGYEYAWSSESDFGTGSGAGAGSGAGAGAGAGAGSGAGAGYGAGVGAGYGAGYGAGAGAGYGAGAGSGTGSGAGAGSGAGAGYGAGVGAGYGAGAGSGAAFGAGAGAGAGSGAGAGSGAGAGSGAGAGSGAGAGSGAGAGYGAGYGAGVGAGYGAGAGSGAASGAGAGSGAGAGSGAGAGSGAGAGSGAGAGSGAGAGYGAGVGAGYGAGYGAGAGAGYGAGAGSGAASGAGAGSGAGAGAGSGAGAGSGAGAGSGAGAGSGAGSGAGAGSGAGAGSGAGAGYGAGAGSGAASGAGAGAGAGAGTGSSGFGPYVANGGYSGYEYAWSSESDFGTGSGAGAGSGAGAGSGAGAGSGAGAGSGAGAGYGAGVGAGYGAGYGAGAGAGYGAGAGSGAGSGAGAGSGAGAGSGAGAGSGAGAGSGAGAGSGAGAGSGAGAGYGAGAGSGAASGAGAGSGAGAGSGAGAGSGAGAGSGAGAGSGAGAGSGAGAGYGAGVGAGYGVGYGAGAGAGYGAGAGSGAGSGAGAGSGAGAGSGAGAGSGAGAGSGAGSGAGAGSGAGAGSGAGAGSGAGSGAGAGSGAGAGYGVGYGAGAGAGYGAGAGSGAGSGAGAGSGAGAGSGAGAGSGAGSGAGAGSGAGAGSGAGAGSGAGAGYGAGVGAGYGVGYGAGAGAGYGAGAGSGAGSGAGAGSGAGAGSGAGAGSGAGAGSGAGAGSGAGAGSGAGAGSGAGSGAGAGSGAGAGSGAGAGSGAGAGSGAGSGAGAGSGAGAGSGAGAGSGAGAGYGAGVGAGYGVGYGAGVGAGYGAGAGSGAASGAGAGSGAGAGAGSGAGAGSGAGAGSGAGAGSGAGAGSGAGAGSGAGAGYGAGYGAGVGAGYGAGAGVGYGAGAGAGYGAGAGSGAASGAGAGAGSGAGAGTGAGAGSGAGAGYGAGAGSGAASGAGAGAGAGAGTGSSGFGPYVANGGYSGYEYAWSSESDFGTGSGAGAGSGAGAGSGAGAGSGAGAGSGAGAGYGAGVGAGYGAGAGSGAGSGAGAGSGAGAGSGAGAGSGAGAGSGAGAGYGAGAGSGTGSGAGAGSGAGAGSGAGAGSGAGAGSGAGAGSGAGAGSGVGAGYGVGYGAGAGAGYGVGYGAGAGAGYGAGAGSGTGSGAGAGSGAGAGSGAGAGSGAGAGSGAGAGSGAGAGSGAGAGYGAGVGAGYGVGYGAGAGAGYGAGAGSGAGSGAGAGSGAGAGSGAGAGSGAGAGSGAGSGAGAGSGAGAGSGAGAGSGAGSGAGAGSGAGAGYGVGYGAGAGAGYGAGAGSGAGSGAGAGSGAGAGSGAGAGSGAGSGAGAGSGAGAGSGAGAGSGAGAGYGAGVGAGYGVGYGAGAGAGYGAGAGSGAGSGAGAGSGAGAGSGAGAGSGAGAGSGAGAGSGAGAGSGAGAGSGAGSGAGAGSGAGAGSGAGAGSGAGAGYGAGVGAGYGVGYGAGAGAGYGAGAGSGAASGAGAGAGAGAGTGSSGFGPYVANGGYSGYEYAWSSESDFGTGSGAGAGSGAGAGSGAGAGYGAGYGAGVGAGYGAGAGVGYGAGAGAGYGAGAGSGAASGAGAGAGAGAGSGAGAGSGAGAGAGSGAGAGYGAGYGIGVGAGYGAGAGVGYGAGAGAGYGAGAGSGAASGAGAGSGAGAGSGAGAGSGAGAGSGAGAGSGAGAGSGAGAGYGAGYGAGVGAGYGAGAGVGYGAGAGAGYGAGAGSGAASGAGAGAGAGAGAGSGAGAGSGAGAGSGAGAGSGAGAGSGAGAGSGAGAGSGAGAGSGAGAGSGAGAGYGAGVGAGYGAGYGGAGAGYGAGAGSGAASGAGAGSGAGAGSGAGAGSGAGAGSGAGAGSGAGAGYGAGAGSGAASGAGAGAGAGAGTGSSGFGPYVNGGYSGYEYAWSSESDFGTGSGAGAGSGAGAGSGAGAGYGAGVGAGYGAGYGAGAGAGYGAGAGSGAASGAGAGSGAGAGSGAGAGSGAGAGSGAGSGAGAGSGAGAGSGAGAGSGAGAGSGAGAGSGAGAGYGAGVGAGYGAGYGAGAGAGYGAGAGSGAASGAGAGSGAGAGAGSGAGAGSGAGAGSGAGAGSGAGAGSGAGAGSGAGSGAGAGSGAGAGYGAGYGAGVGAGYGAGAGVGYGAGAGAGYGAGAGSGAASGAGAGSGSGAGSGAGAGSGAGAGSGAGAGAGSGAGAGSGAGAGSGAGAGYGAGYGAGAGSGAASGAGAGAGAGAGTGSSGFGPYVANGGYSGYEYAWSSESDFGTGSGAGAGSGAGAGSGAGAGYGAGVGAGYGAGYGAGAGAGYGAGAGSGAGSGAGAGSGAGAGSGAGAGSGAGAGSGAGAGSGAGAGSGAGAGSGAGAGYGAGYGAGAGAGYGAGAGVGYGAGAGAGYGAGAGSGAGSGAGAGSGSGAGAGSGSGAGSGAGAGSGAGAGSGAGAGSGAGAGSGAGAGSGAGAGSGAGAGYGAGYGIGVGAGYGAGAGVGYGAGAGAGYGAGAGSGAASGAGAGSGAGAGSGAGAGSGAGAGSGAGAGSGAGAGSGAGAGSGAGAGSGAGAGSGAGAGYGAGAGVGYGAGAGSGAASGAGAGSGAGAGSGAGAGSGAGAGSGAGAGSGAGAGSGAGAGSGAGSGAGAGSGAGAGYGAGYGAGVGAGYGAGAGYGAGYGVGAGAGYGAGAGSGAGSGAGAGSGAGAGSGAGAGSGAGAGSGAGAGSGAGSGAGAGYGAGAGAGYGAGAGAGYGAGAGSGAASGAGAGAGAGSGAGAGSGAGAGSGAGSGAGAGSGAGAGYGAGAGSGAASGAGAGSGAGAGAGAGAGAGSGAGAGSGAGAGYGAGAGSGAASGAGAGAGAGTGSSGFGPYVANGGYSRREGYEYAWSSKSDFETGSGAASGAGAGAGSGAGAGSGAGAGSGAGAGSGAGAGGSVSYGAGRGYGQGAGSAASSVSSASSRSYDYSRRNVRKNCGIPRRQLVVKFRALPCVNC

binding: binds
B1: fibroin light chain (Fib-L) (protein, UniProt P21828 17-262)
chain: APSVTINQYSDNEIPRDIDDGKASSVISRAWDYVDDTDKSIAILNVQEILKDMASQGDYASQASAVAQTAGIIAHLSAGIPGDACAAANVINSYTDGVRSGNFAGFRQSLGPFFGHVGQNLNLINQLVINPGQLRYSVGPALGCAGGGRIYDFEAAWDAILASSDSSFLNEEYCIVKRLYNSRNSQSNNIAAYITAHLLPPVAQVFHQSAGSITDLLRGVGNGNDATGLVANAQRYIAQAASQVHV

binding: binds
B2: P25 (protein, UniProt P04148 17-220)
chain: AGPPSPIYRPCYLDDYKCISDHLAANSKCIPGRGQIPSQYEIPVFQFEIPYFNATYVDHNLITRNHDQCRVSEFYDNVRTLKTVLTVDCPWLNFESNRTLAQHMSFKEDVVLSFYINGSYPLIRLTTVFDKGNNFDLCSAFTFADLAGGLPIFHINPNDQRTAQWLSKDLTLLHIYEREHIFGKRNWLARSFISRTLCDFGCQH
